In PubChem BioAssay AID504834 (National Center for Advancing Translational Sciences (NCATS), 2011):
“And” between values parts separate entries of the source, which are not always exact repeats. Equal values may be shown once. Out of some 320,000 compounds screened, about 22,000 (6.9%) were called active. The inconclusive results got no clear call from the source; some entries with a clear call stand among them for comparison. Calls come from the whole dose curve; as a rule, active = well fitted inhibition curve with a large enough effect; inconclusive = small, poorly fitted or top-dose-only effect, or another doubt; inactive = no such curve, though single readings can be large or run the other way. Potencies of inconclusive entries are doubtful fits and often do not repeat.

experiment: Primary qHTS for delayed death inhibitors of the malarial parasite plastid, 96 hour incubation; settings: P. falciparum luciferase reporter growth; series mostly up to 28.7 µM
Summary of the method: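 Parasite growth measured via integrated firefly luciferase reporter in P. falciparum. Infected erythrocytes at 2% hematocrit, 0.05% parasitemia final were treated 96 hours at 37 C under 5% CO2, and luminescence was read.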
Potency is the fitted concentration of half-maximal effect.

Structure (SMILES) | Potency
Cc1[nH]nc(-c2ccc(OCc3cnn(-c4ccccc4)c3)cc2O)c1Oc1ccc(Cl)cc1 | active: 13.1 µM
Cc1ccc(-c2cc(C(=O)NCc3cn(C)nc3C)c3cc(Br)ccc3n2)cc1 | active: 13.1 µM
Cc1ccc(Cn2ccc(C3CC3)n2)cc1 | inactive
Cc1ccc(OCC(=O)N2CCN(C3CCC(c4ccccc4)CC3)CC2)cc1 (stereo not drawn) | inconclusive: 0.465 µM [inhibitor, full curve, poor fit]
c1nnc(-c2ccc3c(c2)OCO3)o1 | inactive
CCn1cnc2cc(NCc3ccc(C)cc3)ccc21 | inactive
COc1ccccc1CC(=O)NCC(c1ccco1)N1CCCCC1 (stereo not drawn) | inconclusive: 13.1 µM [inhibitor, single point]
CN(c1ccccc1)S(=O)(=O)c1cccc(NC(=O)Cc2n[nH]c(=O)c3ccccc23)c1 | inconclusive: 18.5 µM [inhibitor, single point]
COc1ccc(C(C)NC(=O)C2CCCC2)cc1OC (stereo not drawn) | inactive
CNC(=O)NC(=O)C(NC1CCCc2ccccc21)c1ccccc1 (stereo not drawn) | inconclusive: 16.5 µM [inhibitor, partial curve, poor fit]
CCN1C(=NCCc2ccccn2)N[C@@H](c2cccc(F)c2)C(C(=O)OC)=C1C | inactive and inconclusive: 465 nM [inhibitor, full curve, poor fit]
CCNC(=O)C1CC(=O)N(Cc2ccc3c(c2)OCO3)C(=Nc2ccc(F)cc2)S1 (stereo not drawn) | inconclusive: 11.7 µM [inhibitor, partial curve, poor fit]
CCC1CCCCN1S(=O)(=O)c1ccc(C(=O)N(CCCN(C)C)c2nc3cc4c(cc3s2)OCO4)cc1 (stereo not drawn) | inconclusive: 14.7 µM [inhibitor, single point]
NC(=O)c1cc(S(=O)(=O)N2CCOCC2)cs1 | inconclusive: 11.7 µM [inhibitor, partial curve, poor fit]
O=C(Nc1nnc(Cc2ccc(Cl)cc2)s1)c1ccncc1 | inactive
Cc1ccc(C(=O)NCC(c2ccco2)N2CCOCC2)cc1 (stereo not drawn) | active: 6.57 µM
COc1ccc(N2C(=O)c3ccccc3C2=O)cc1 | inconclusive: 18.5 µM [inhibitor, single point]
Cc1cccc(C)c1NC(=O)COC(=O)CCc1ccc(S(=O)(=O)N2CCCCC2)cc1 | inactive
CNC(=O)C1CCN(C(=O)c2ccc(-c3ccccc3)cc2)CC1 | inconclusive: 10.4 µM [inhibitor, partial curve, poor fit]
CN1CCN(C(=O)CN2C(=O)COc3ccc(S(=O)(=O)N4CCOCC4)cc32)CC1 | active: 5.22 µM
COc1ccccc1C(=O)NCC(=O)NNc1ncnc(N)c1[N+](=O)[O-] | inconclusive: 11.7 µM [inhibitor, single point]
COc1ccc2c(C)cc(SCC(=O)N3CCOCC3)nc2c1 | active: 0.185 µM
Cn1c(SCC(=O)NC2CCS(=O)(=O)C2)nnc1-c1ccco1 (stereo not drawn) | inactive
COc1ccc(Cn2c(-c3ccco3)nc3oc4cc(OC)ccc4c(=O)c3c2=O)cc1 | inconclusive: 0.0083 µM [inhibitor, full curve, poor fit]
Cc1ccc(-c2nc(-c3ccncc3)no2)cc1Cl | inactive

Retrieved by structure from the entries so far, 5 records:
Structure (SMILES) | Potency
COc1ccccc1CC(=O)NCC(c1ccco1)N1CCCCC1 (stereo not drawn) | inconclusive: 13.1 µM [inhibitor, single point]
O=C(Nc1nnc(Cc2ccc(Cl)cc2)s1)c1ccncc1 | inactive
Cc1cccc(C)c1NC(=O)COC(=O)CCc1ccc(S(=O)(=O)N2CCCCC2)cc1 | inactive
COc1ccc(N2C(=O)c3ccccc3C2=O)cc1 | inconclusive: 18.5 µM [inhibitor, single point]
c1nnc(-c2ccc3c(c2)OCO3)o1 | inactive

Next part.

Structure (SMILES) | Potency
O=C(N=Nc1c(O)[nH]c(=O)[nH]c1=O)C1COc2cc3ccccc3cc2O1 (stereo not drawn) | inconclusive: 18.5 µM [inhibitor, single point]
NS(=O)(=O)c1ccc(CNC(=O)c2cc(-c3ccccc3)nc3ccccc23)cc1 | inconclusive: 18.5 µM [inhibitor, partial curve, poor fit]
COc1cccc(CNC(=O)CCC2CCCN(C(=O)c3ccc(C)nc3)C2)c1 (stereo not drawn) | inconclusive: 9.28 µM [inhibitor, partial curve]
CC(C)c1ccc(S(=O)(=O)c2cnc(=S)[nH]c2N)cc1 | inactive
Cc1ccc(S(=O)(=O)NCc2ccc(C(=O)N3CCN(c4ccccn4)CC3)cc2)cc1 | inconclusive: 9.28 µM [inhibitor, partial curve, poor fit]
CN(C)c1oc(-c2ccccc2Cl)nc1S(=O)(=O)c1ccccc1 | active: 6.57 µM
Cc1ccc(Cn2c(C3CCCN3c3nc(C)cs3)nc3cc(C(F)(F)F)ccc32)cc1 (stereo not drawn) | inconclusive: 10.4 µM [inhibitor, partial curve, poor fit]
CCn1nc(C(=O)Nc2cc(Cl)ccc2-n2cncn2)c2ccccc2c1=O | inconclusive: 18.5 µM [inhibitor, single point]
C(=N\Nc1ccc2ccccc2n1)/c1ccc2c(c1)OCCO2 | inactive
O=C(NN1C(=O)c2cc(Br)ccc2NC1c1ccccc1Cl)c1ccncc1 (stereo not drawn) | inconclusive: 16.5 µM [inhibitor, partial curve, poor fit]
CCn1c(SCC(=O)NCc2ccco2)nnc1C(C)C | inconclusive: 18.5 µM [inhibitor, single point]
O=C(Nc1ccccc1)N1CCCN(c2c(Cl)cncc2Cl)CC1 | inconclusive: 14.7 µM [inhibitor, partial curve, poor fit]
CCOc1ccc(NC(=O)C2CCCN(S(=O)(=O)c3cnc[nH]3)C2)cc1 (stereo not drawn) | inactive
Cc1csc2ncc(C(=O)NCc3ccco3)c(=O)n12 | inactive
Cc1cccc(NC(=O)CSc2nnc(-c3ccccc3)n2N)c1 | inactive
CCc1ccc(NS(=O)(=O)c2ccc3[nH]cc(C(=O)N4CCc5ccccc54)c(=O)c3c2)cc1 | inconclusive: 1.65 µM [inhibitor, full curve, poor fit]
O=c1c2c3nc4ccccc4nc3n(/N=C/c3cccs3)c2ncn1-c1ccccc1 | inconclusive: 8.28 µM [inhibitor, partial curve]
Clc1ccc(CSc2ccc(-c3ccccn3)nn2)cc1 | inconclusive: 18.5 µM [inhibitor, single point]
Cc1cccc(CN2CCN(c3nc4nonc4nc3NC3CC3)CC2=O)c1 | inconclusive: 13.1 µM [inhibitor, single point]
COc1ccc(S(=O)(=O)Cc2ccccc2)cc1N | inactive
CCCN(CCC)C(=O)Cn1c(=O)n(CCCCCC(=O)Nc2ccccc2)c(=O)c2sccc21 | inactive
CC(C)(C)OC(=O)N1CCCN(C(=O)Nc2ccc(C(F)(F)F)cc2)CC1 | inconclusive: 0.037 µM [inhibitor, full curve, poor fit]
COc1ccccc1/C=N/NC(=O)NC12CC3CC(CC(C3)C1)C2 | inactive
O=C(/C=C/c1cccs1)NC1CCS(=O)(=O)C1 (stereo not drawn) | inactive
O=C(NNC(=S)Nc1ccc(Br)cc1Cl)c1ccco1 | inconclusive: 18.5 µM [inhibitor, single point]

Structure (SMILES) | Potency
N#CCCNS(=O)(=O)c1ccc(C(=O)OCC(=O)Nc2ccc3c(c2)OCO3)cc1 | inactive
CN(CC1CCCCO1)C(=O)c1cc(COc2ccc(F)cc2Cl)on1 (stereo not drawn) | inactive
CC(C)(C)c1cc(CN2CCN(CCC#N)CC2)cc(C(C)(C)C)c1O | inconclusive: 9.28 µM [inhibitor, partial curve, poor fit]
Cc1cc2occ(CC(=O)NCc3cccs3)c2cc1C(C)C | inconclusive: 10.4 µM [inhibitor, single point]
O=C(C1CCC(=O)N1Cc1ccc(F)cc1)N1CCC2(CC1)OCCO2 (stereo not drawn) | inconclusive: 18.5 µM [inhibitor, single point]
COc1ccc(S(=O)(=O)N2CCOCC2)cc1NC(=O)c1ccncc1 | inconclusive: 14.7 µM [inhibitor, single point]
CCOC(=O)N1CCC(N(CCN(C)C)C(=S)Nc2cc(Cl)ccc2C)CC1 | inactive
COc1cc(OC)nc(NC(=O)CCl)n1 | inactive
CCOC(=O)c1c(NC(=O)CCl)sc(CN(C)C)c1-c1ccccc1 | inconclusive: 18.5 µM [inhibitor, single point]
O=C(CCN1CCN(c2ccc(F)cc2)CC1)Nc1ccc(F)cc1 | inactive
Cc1ccc(C(=O)NCc2ccncc2)cc1S(=O)(=O)N1CCCCC1 | inconclusive: 4.15 µM [inhibitor, partial curve]
Cc1ccc(-c2nn(C)c(=O)c3ccccc23)cc1CNC(=O)CSc1nc2ccccc2o1 | inconclusive: 8.28 µM [inhibitor, partial curve, poor fit]
COC(=O)c1sccc1NC(=O)CCC1CCCCC1 | inactive
Cc1nn(Cc2ccccc2)c(C)c1NC(=O)c1cc(-c2ccco2)on1 | inactive
COc1ccc(C2NC(=O)NC3=C2CCc2ccccc23)cc1 (stereo not drawn) | inconclusive: 18.5 µM [inhibitor, single point]
OC(c1cccc(Cl)c1)c1nccc2ccccc12 (stereo not drawn) | inconclusive: 18.5 µM [inhibitor, single point]
CCn1c(SCC(=O)N2CCCC2)nc2c(c1=O)SCC2 | inconclusive: 0.165 µM [inhibitor, full curve, poor fit]
CCOCC(=O)Nc1c(C(=O)Nc2ccc3c(c2)OCCO3)oc2ccccc12 | inactive
CCCCNCc1cc(OC)c(OCC(N)=O)cc1Br | inconclusive: 10.4 µM [inhibitor, single point]
CCOC(=O)C1(Cc2ccccc2)CCCN(S(=O)(=O)N(C)C)C1 (stereo not drawn) | inconclusive: 18.5 µM [inhibitor, single point]
O=C(O)c1ccccc1C(=O)NNc1ccc(Cl)cc1 | inactive
CC(=O)NS(=O)(=O)c1ccc(NC(=O)c2cc(-c3ccc(C)c(C)c3)nc3ccccc23)cc1 | inconclusive: 4.15 µM [inhibitor, single point]
COc1ccc(-c2nc(CSCC(=O)NCCC3=CCCCC3)c(C)o2)cc1OC | inactive
